Reference: US10806702B2, “Bis-polymer lipid-peptide conjugates and nanoparticles thereof” (THE REGENTS OF THE UNIVERSITY OF CALIFORNIA, priority 2012, dated 2020)
At least one compound was matched to its structure with a doubt left.

Experiment: Drug loading of micelles (thin film hydration, HPLC)
Type: physicochemical
Conditions: drug encapsulated in dC18-1coi(P2K)-P750 micelles
Protocol: DOX, paclitaxel and rapamycin loaded micelles were prepared using identical procedures by thin film hydration method. dC18-1coi(P2K)-P750 and the different drugs were dissolved in methanol in a glass vial and the solvent was evaporated in vacuum oven for 3 hours. The dried film containing the conjugate and drug was rehydrated with 25 mM phosphate buffer, pH 7.4, and the solution was stirred for 16 hours to allow the assembly into drug loaded 3-helix micelles. Free drug was removed by centrifugation followed by spin ultrafiltration (Amicon centrifugal filter units, MW cutoff: 3000 Da). The concentrate obtained was washed with water and lyophilized to obtain drug loaded micelles. The drug loaded micelles were dissolved in methanol and loading was determined by reverse phase HPLC monitoring the absorbance of drugs at 280 nm. For all characterization experiments of drug loaded micelles, lyophilized powder of micellar-drugs was dissolved in 25 mM phosphate buffer, pH 7.4, and the solution was heated in water bath at 60° C. for an hour to break potential aggregates to obtain a clear solution.
The solvent was evaporated in vacuum oven for 3 hours. […] The salts and free drug were removed by centrifugation followed by spin ultrafiltration (Amicon centrifugal filter units, MW cutoff: 3000 Da). […]
Drug loading content was determined by HPLC. […]

CO[C@H]1C[C@@H]2CC[C@@H](C)[C@@](O)(O2)C(=O)C(=O)N2CCCC[C@H]2C(=O)O[C@H]([C@H](C)C[C@@H]2CC[C@@H](O)[C@H](OC)C2)CC(=O)[C@H](C)/C=C(\C)[C@@H](O)[C@@H](OC)C(=O)[C@H](C)C[C@H](C)/C=C/C=C/C=C/1C [Rapamycin, rapamycin]
Loading (wt %): 2.1 ± 0.6 wt %
